From US20150344535A1, “NEUROTROPHIN-TYROSINE KINASE RECEPTOR SIGNALING” (THE UNIVERSITY OF QUEENSLAND, priority 2012, published 2015)
No constants are given. Whether binding was seen depends on the method and setting. Binding seen in cells or lysates may run through a third protein. For part of these data: Binding calls can cover weak binding; strength is not graded here.

Assays:
EGF receptor = experiment: pull-down with biotinylated peptide from transfected HEK293 lysate, Western blot
TrkA [1] = experiment: as above
TrkA [2] = experiment: pull-down with biotinylated peptide, Western blot

- binding (EGF receptor): no binding
- binding (TrkA [1]): binds
- binding (TrkA [2]): binds
B1: biotinylated c29 peptide (peptide)
peptide: KRWNSCKQNKQGANSRPVNQTPPPEGEKL
modifications: amino terminus labelled with biotin via a six-carbon spacer
